Assay results from paper PMC7311471, “The iron–sulphur cluster in human DNA2 is required for all biochemical activities of DNA2”.
Positions count from the first letter of the chain named. The exact form of at least one protein or probe is not confirmed. For some of these results: The comparison behind a weaker result is the experiment's own reference, which may not be listed here. For some of these results: At least one verdict rests on a figure or table, not on a statement of the authors. Where a protein sequence is shown, tags need not be part of it.

How the values were obtained:
Assay in all cases: EMSA
DNA2 WT (human) = target: T1, DNA2 WT (human) (UniProt P51530); details: 20 nM protein, EMSA: 25 mM Tris-HCl pH 8.0, 0.1 mg/ml BSA, 5 mM EDTA, with or without 1 mM DTT, 30 min on ice, 4-5 nM FAM-DNA or 1 nM 32P-DNA, recombinant protein, residues 1-1060, protein details: His6 and FLAG, label: FAM
T1 sequence (looked up): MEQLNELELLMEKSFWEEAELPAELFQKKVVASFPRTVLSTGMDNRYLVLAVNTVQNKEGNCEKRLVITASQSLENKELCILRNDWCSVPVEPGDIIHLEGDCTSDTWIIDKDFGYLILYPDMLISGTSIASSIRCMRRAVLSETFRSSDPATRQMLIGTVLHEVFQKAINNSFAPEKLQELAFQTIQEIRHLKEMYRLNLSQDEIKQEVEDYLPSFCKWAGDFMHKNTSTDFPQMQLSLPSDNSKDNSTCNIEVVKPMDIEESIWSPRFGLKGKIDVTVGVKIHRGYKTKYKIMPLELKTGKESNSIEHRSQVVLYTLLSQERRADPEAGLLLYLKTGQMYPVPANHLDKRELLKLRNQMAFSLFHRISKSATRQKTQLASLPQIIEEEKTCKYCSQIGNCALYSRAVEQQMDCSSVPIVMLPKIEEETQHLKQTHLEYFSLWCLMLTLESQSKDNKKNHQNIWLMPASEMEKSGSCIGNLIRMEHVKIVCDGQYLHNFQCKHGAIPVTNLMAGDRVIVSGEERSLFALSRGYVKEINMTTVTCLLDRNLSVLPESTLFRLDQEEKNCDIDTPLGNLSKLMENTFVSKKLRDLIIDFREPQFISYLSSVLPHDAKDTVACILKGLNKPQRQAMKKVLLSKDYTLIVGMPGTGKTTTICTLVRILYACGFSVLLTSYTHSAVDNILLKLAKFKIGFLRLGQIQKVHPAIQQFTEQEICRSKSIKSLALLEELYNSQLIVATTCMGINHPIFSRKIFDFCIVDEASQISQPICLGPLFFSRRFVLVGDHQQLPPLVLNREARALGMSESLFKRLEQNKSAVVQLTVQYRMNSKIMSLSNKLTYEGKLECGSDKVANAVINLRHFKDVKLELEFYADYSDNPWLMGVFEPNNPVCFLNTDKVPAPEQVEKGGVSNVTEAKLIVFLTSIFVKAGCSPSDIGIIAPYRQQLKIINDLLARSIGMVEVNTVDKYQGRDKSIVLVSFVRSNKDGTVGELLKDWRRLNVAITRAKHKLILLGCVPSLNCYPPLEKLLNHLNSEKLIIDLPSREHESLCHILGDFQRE

DNA2 C396S (human) = target: T2, DNA2 C396S (human) (UniProt P51530); details: 200 nM protein, EMSA: 25 mM Tris-HCl pH 8.0, 0.1 mg/ml BSA, 5 mM EDTA, with or without 1 mM DTT, 30 min on ice, recombinant protein, residues 1-1060, protein details: His6 and FLAG, label: FAM; for binding result: 4-5 nM FAM-DNA or 1 nM 32P-DNA
T2 sequence (looked up): T1 sequence (looked up) with C396S

HLTF (human) = target: T3, HLTF (human) (UniProt Q14527); details: 13 nM protein, not sensitive to H2O2; EMSA: 25 mM Tris-HCl pH 8.0, 0.1 mg/ml BSA, 5 mM EDTA, with or without 1 mM DTT, 30 min on ice; 4-5 nM FAM-DNA or 1 nM 32P-DNA; recombinant protein; protein details: FLAG; label: 5' FAM on X01
T3 sequence (looked up, limits assumed): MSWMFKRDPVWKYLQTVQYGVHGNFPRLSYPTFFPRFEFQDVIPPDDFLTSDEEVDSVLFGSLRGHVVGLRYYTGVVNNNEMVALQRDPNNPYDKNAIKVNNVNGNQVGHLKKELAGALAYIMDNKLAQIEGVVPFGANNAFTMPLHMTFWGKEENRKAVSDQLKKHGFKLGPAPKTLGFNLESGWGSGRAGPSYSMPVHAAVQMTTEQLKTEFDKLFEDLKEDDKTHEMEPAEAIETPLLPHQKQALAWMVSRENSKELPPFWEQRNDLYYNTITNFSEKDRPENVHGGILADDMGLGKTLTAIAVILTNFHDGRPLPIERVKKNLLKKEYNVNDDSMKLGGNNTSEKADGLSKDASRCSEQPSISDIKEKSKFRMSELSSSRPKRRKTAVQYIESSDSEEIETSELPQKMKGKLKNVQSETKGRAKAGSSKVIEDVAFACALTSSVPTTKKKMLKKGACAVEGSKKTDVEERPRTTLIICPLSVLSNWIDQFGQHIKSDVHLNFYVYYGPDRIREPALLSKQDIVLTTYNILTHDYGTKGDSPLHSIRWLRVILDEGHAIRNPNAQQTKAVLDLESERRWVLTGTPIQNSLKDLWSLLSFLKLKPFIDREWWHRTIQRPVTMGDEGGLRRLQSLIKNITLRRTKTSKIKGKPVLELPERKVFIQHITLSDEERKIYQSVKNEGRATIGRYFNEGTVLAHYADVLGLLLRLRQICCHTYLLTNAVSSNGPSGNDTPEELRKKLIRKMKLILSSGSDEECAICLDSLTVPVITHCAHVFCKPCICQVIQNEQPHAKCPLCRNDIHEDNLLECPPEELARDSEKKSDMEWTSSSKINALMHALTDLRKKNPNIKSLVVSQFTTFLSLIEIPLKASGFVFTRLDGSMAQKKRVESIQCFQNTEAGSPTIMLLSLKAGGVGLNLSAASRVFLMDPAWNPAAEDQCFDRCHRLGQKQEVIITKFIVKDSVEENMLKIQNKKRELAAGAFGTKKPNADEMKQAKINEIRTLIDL

Sequence: ATCGATAGTCGGATCCTCTAGACAGCTCCATGTAGCAAGGCACTGGTAGAATTCGGCAGCGT / ACGCTGCCGAATTCTACCAGTGCCTTGCTACATGGAGCTGTC [5' overhang 20 nt]
- binding result (DNA2 WT (human); complete binding): binds
- binding result (DNA2 C396S (human); little binding): binds more weakly

Sequence: ATCGATAGTCGGATCCTCTAGACAGCTCCATGTAGCAAGGCACTGGTAGAATTCGGCAGCGT / ACGCTGCCGAATTCTACCAGTGCCTTGCTACATGGAGCTGTCTAGAG [5' overhang 15 nt]
- binding result (DNA2 WT (human); partial binding): binds more weakly
- binding result (DNA2 C396S (human); little binding): binds more weakly

Sequence: GACGCTGCCGAATTCTACCAGTGCCTTGCTAGGACATCTTTGCCCACCTGCAGGTTCACCC / TGGGTGAACCTGCAGGTGGGCAAAGATGTCCATCTGTTGTAATCGTCAAGCTTTATGCCGTT / GAACGGCATAAAGCTTGACGATTACAACAGATCATGGAGCTGTCTAGAGGATCCGACTATCGA / ATCGATAGTCGGATCCTCTAGACAGCTCCATGTAGCAAGGCACTGGTAGAATTCGGCAGCGT [4-way junction]
- binding result (HLTF (human)): binds

Sequence: ATCGATAGTCGGATCCTCTAGACAGCTCCATGTAGCAAGGCACTGGTAGAATTCGGCAGCGT / ACGCTGCCGAATTCTACCAGTG [5' overhang 40 nt]
- binding result (DNA2 WT (human); complete binding): binds
- binding signal (DNA2 C396S (human); complete binding, 4-5 nM FAM-DNA or 1 nM …): 100 % bound

Sequence: ATCGATAGTCGGATCCTCTAGACAGCTCCATGTAGCAAGGCACTGGTAGAATTCGGCAGCGT / ACGCTGCCGAATTCTACCAGTGCCTTG [5' overhang 35 nt]
- binding result (DNA2 WT (human); complete binding): binds
- binding result (DNA2 C396S (human); complete only above 35 nt): binds more weakly

Sequence: ATCGATAGTCGGATCCTCTAGACAGCTCCATGTAGCAAGGCACTGGTAGAATTCGGCAGCGT / ACGCTGCCGAATTCTACCAGTGCCTTGCTACATGGAG [5' overhang 25 nt]
- binding result (DNA2 WT (human); complete binding): binds
- binding result (DNA2 C396S (human); not complete): binds more weakly

Sequence: ATCGATAGTCGGATCCTCTAGACAGCTCCATGTAGCAAGGCACTGGTAGAATTCGGCAGCGT / ACGCTGCCGAATTCTACCAGTGCCTTGCTACA [5' overhang 30 nt]
- binding result (DNA2 WT (human); complete binding): binds
- binding result (DNA2 C396S (human); not complete): binds more weakly
